± gives the standard deviation of the averaged measurements. This is a noisy data set.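 Each test well overexpressed one poorly characterized human cDNA in ERalpha-negative HeLa cells together with transfected ERalpha and a reporter carrying two estrogen response elements. A gene counted as a repressor hit if it cut the signal to the level of the BRCA1 positive control (about 0.6 of empty vector) or lower.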
These substances were tested on ERE-luciferase reporter with exogenous ERalpha in HeLa cells (assay: relative ERE luciferase activity (Firefly/Renilla) upon cDNA overexpression, relative to empty vector (fold of empty vector); higher = stronger ERalpha transactivation (less repression)). Conditions: 17beta-estradiol: 10 nM; 12 h.
“MGSACIKVTKYFLFLFNLIFFILGAVILGFGVWILADKSSFISVLQTSSSSLRMGAYVFIGVGAVTMLMGFLGCIGAVNEVRCLLGLYFAFLLLILIAQVTAGALFYFNMGKLKQEMGGIVTELIRDYNSSREDSLQDAWDYVQAQVKCCGWVSFYNWTDNAELMNRPEVTYPCSCEVKGEEDNSLSVRKGFCEAPGNRTQSGNHPEDWPVYQEGCMEKVQAWLQENLGIILGVGVGVAIIELLGMVLSICLCRHVHSEDYSKVPKY [CD82]” was tested, and the “relative ERE luciferase activity” value was 1.02. For “MGDPNSRKKQALNRLRAQLRKKKESLADQFDFKMYIAFVFKEKKKKSALFEVSEVIPVMTNNYEENILKGVRDSSYSLESSLELLQKDVVQLHAPRYQSMRRDVIGCTQEMDFILWPRNDIEKIVCLLFSRWKESDEPFRPVQAKFEFHHGDYEKQFLHVLSRKDKTGIVVNNPNQSVFLFIDRQHLQTPKNKATIFKLCSICLYLPQEQLTHWAVGTIEDHLRPYMPE [C6orf62]”, the “relative ERE luciferase activity” value was 1.07. For “MPTGKQLADIGYKTFSTSMMLLTVYGGYLCSVRVYHYFQWRRAQRQAAEEQKTSGIM [C12orf62]”, the “relative ERE luciferase activity” value was 0.939. For “MANRTVKDAHSIHGTNPQYLVEKIIRTRIYESKYWKEECFGLTAELVVDKAMELRFVGGVYGGNIKPTPFLCLTLKMLQIQPEKDIIVEFIKNEDFKYVRMLGALYMRLTGTAIDCYKYLEPLYNDYRKIKSQNRNGEFELMHVDEFIDELLHSERVCDIILPRLQKRYVLEEAEQLEPRVSALEEDMDDVESSEEEEEEDEKLERVPSPDHRRRSYRDLDKPRRSPTLRYRRSRSRSPRRRSRSPKRRSPSPRRERHRSKSPRRHRSRSRDRRHRSRSKSPGHHRSHRHRSHSKSPERSKKSHKKSRRGNE [PRPF38A]”, the “relative ERE luciferase activity” value was 1.32. “MEGESTSAVLSGFVLGALAFQHLNTDSDTEGFLLGEVKGEAKNSITDSQMDDVEVVYTIDIQKYIPCYQLFSFYNSSGEVNEQALKKILSNVKKNVVGWYKFRRHSDQIMTFRERLLHKNLQEHFSNQDLVFLLLTPSIITESCSTHRLEHSLYKPQKGLFHRVPLVVANLGMSEQLGYKTVSGSCMSTGFSRAVQTHSSKFFEEDGSLKEVHKINEMYASLQEELKSICKKVEDSEQAVDKLVKDVNRLKREIEKRRGAQIQAAREKNIQKDPQENIFLCQALRTFFPNSEFLHSCVMSLKNRHVSKSSCNYNHHLDVVDNLTLMVEHTDIPEASPASTPQIIKHKALDLDDRWQFKRSRLLDTQDKRSKADTGSSNQDKASKMSSPETDEEIEKMKGFGEYSRSPTF [CCDC98]” was tested, and the “relative ERE luciferase activity” value was 1.12. For “MQKSCEENEGKPQNMPKAEEDRPLEDVPQEAEGNPQPSEEGVSQEAEGNPRGGPNQPGQGFKEDTPVRHLDPEEMIRGVDELERLREEIRRVRNKFVMMHWKQRHSRSRPYPVCFRP [TCEAL8]”, the “relative ERE luciferase activity” value was 1.14. In the case of “MADHSFSDGVPSDSVEAAKNASNTEKLTDQVMQNPRVLAALQERLDNVPHTPSSYIETLPKAVKRRINALKQLQVRCAHIEAKFYEEVHDLERKYAALYQPLFDKRREFITGDVEPTDAESEWHSENEEEEKLAGDMKSKVVVTEKAAATAEEPDPKGIPEFWFTIFRNVDMLSELVQEYDEPILKHLQDIKVKFSDPGQPMSFVLEFHFEPNDYFTNSVLTKTYKMKSEPDKADPFSFEGPEIVDCDGCTIDWKKGKNVTVKTIKKKQKHKGRGTVRTITKQVPNESFFNFFNPLKASGDGESLDEDSEFTLASDFEIGHFFRERIVPRAVLYFTGEAIEDDDNFEEGEEGEEEELEGDEEGEDEDDAEINPKV [NAP1L4]”, the “relative ERE luciferase activity” value is reported as 0.817. With “MPEWPPCLSVAPALVITMAAGKGAPLSPSAENRWRLSEPELGRGCKPVLLEKTNRLGPEAAVGRAGRDVGSAELALLVAPGKPRPGKPLPPKTRGEQRQSAFTELPRMKDRQVDAQAQEREHDDPTGQPGAPQLTQNIPRGPAGSKVFSVWPSGARSEQRSAFSKPTKRPAERPELTSVFPAGESADALGELSGLLNTTDLACWGRLSTPKLLVGDLWNLQALPQNAPLCSTFLGAPTLWLEHTQAQVPPPSSSSTTSWALLPPTLTSLGLSTQNWCAKCNLSFRLTSDLVFHMRSHHKKEHAGPDPHSQKRREEALACPVCQEHFRERHHLSRHMTSHS [ZNF488]” the “relative ERE luciferase activity” value was 1.27. In the case of “MATLARLQARSSTVGNQYYFRNSVVDPFRKKENDAAVKIQSWFRGCQVRAYIRHLNRIVTIIQKWWRSFLGRKQYQLTVQVAYYTMMMNLYNAMAVRIQRRWRGYRVRKYLFNYYYLKEYLKVVSETNDAIRKALEEFAEMKEREEKKANLEREEKKRDYQARKMHYLLSTKQIPGIYNSPFRKEPDPWELQLQKAKPLTHRRPKVKQKDSTSLTDWLACTSARSFPRSEILPPINRKQCQGPFRDITEVLEQRYRPLEPTLRVAEPIDELKLAREELRREEWLQNVNDNMFLPFSSYHKNEKYIPSMHLSSKYGPISYKEQFRSENPKKWICDKDFQTVLPSFELFSKYGKLYSKAGQIV [SPATA17]”, the “relative ERE luciferase activity” value is reported as 1.03. In the case of “MSEQEAQAPGGRGLPPDMLAEQVELWWSQQPRRSALCFVVAVGLVAGCGAGGVALLSTTSSRSGEWRLATGTVLCLLALLVLVKQLMSSAVQDMNCIRQAHHVALLRSGGGADALVVLLSGLVLLVTGLTLAGLAAAPAPARPLAAMLSVGIALAALGSLLLLGLLLYQVGVSGHCPSICMATPSTHSGHGGHGSIFSISGQLSAGRRHETTSSIASLI [TMEM125]”, the “relative ERE luciferase activity” value is reported as 1.12. With “MDDREDLVYQAKLAEQAERYDEMVESMKKVAGMDVELTVEERNLLSVAYKNVIGARRASWRIISSIEQKEENKGGEDKLKMIREYRQMVETELKLICCDILDVLDKHLIPAANTGESKVFYYKMKGDYHRYLAEFATGNDRKEAAENSLVAYKAASDIAMTELPPTHPIRLGLALNFSVFYYEILNSPDRACRLAKAAFDDAIAELDTLSEESYKDSTLIMQLLRDNLTLWTSDMQGDGEEQNKEALQDVEDENQ [YWHAE]” the “relative ERE luciferase activity” value was 1.02. With BAHCC1 the “relative ERE luciferase activity” value was 1.06. RCOR3 was tested, and the “relative ERE luciferase activity” value was 1.25. With “MMATPNQTACNAESPVALEEAKTSGAPGSPQTPPERHDSGGSLPLTPRMESHSEDEDLAGAVGGLGWNSRSPRTQSPGGCSAEAVLARKKHRRRPSKRKRHWRPYLELSWAEKQQRDERQSQRASRVREEMFAKGQPVAPYNTTQFLMNDRDPEEPNLDVPHGISHPGSSGESEAGDSDGRGRAHGEFQRKDFSETYERFHTESLQGRSKQELVRDYLELEKRLSQAEEETRRLQQLQACTGQQSCRQVEELAAEVQRLRTENQRLRQENQMWNREGCRCDEEPGT [HEXIM2]” the “relative ERE luciferase activity” value was 1 ± 0.09. With “MAPKAAKGAKPEPAPAPPPPGAKPEEDKKDGKEPSDKPQKAVQDHKEPSDKPQKAVQPKHEVGTRRGCRRYRWELKDSNKEFWLLGHAEIKIRSLGCLIAAMILLSSLTVHPILRLIITMEISFFSFFILLYSFAIHRYIPFILWPISDLFNDLIACAFLVGAVVFAVRSRRSMNLHYLLAVILIGAAGVFAFIDVCLQRNHFRGKKAKKHMLVPPPGKEKGPQQGKGPEPAKPPEPGKPPGPAKGKK [CMTM2]” the “relative ERE luciferase activity” value was 2.26 ± 0.6. In the case of “MARPDPSAPPSLLLLLLAQLVGRAAAASKAPVCQEITVPMCRGIGYNLTHMPNQFNHDTQDEAGLEVHQFWPLVEIQCSPDLRFFLCSMYTPICLPDYHKPLPPCRSVCERAKAGCSPLMRQYGFAWPERMSCDRLPVLGRDAEVLCMDYNRSEATTAPPRPFPAKPTLPGPPGAPASGGECPAGGPFVCKCREPFVPILKESHPLYNKVRTGQVPNCAVPCYQPSFSADERTFATFWIGLWSVLCFISTSTTVATFLIDMERFRYPERPIIFLSACYLCVSLGFLVRLVVGHASVACSREHNHIHYETTGPALCTIVFLLVYFFGMASSIWWVILSLTWFLAAGMKWGNEAIAGYAQYFHLAAWLIPSVKSITALALSSVDGDPVAGICYVGNQNLNSLRGFVLGPLVLYLLVGTLFLLAGFVSLFRIRSVIKQGGTKTDKLEKLMIRIGIFTLLYTVPASIVVACYLYEQHYRESWEAALTCACPGHDTGQPRAKPEYWVLMLKYFMCLVVGITSGVWIWSGKTVESWRRFTSRCCCRPRRGHKSGGAMAAGDYPEASAALTGRTGPPGPAATYHKQVSLSHV [FZD5]”, the “relative ERE luciferase activity” value is reported as 1.03. With “MLSRLMSGSSRSLEREYSCTVRLLDDSEYTCTIQRDAKGQYLFDLLCHHLNLLEKDYFGIRFVDPDKQRHWLEFTKSVVKQLRSQPPFTMCFRVKFYPADPAALKEEITRYLVFLQIKRDLYHGRLLCKTSDAALLAAYILQAEIGDYDSGKHPEGYSSKFQFFPKHSEKLERKIAEIHKTELSGQTPATSELNFLRKAQTLETYGVDPHPCKDVSGNAAFLAFTPFGFVVLQGNKRVHFIKWNEVTKLKFEGKTFYLYVSQKEEKKIILTYFAPTPEACKHLWKCGIENQAFYKLEKSSQVRTVSSSNLFFKGSRFRYSGRVAKEVMESSAKIKREPPEIHRAGMVPSRSCPSITHGPRLSSVPRTRRRAVHISIMEGLESLRDSAHSTPVRSTSHGDTFLPHVRSSRTDSNERVAVIADEAYSPADSVLPTPVAEHSLELMLLSRQINGATCSIEEEKESEASTPTATEVEALGGELRALCQGHSGPEEEQVNKFVLSVLRLLLVTMGLLFVLLLLLIILTESDLDIAFFRDIRQTPEFEQFHYQYFCPLRRWFACKIRSVVSLLIDT [FRMD5]” the “relative ERE luciferase activity” value was 1.13. “MSCVLGGVIPLGLLFLVCGSQGYLLPNVTLLEELLSKYQHNESHSRVRRAIPREDKEEILMLHNKLRGQVQPQASNMEYMTWDDELEKSAAAWASQCIWEHGPTSLLVSIGQNLGAHWGRYRSPGFHVQSWYDEVKDYTYPYPSECNPWCPERCSGPMCTHYTQIVWATTNKIGCAVNTCRKMTVWGEVWENAVYFVCNYSPKGNWIGEAPYKNGRPCSECPPSYGGSCRNNLCYREETYTPKPETDEMNEVETAPIPEENHVWLQPRVMRPTKPKKTSAVNYMTQVVRCDTKMKDRCKGSTCNRYQCPAGCLNHKAKIFGTLFYESSSSICRAAIHYGILDDKGGLVDITRNGKVPFFVKSERHGVQSLSKYKPSSSFMVSKVKVQDLDCYTTVAQLCPFEKPATHCPRIHCPAHCKDEPSYWAPVFGTNIYADTSSICKTAVHAGVISNESGGDVDVMPVDKKKTYVGSLRNGVQSESLGTPRDGKAFRIFAVRQ [CRISPLD2]” was tested, and the “relative ERE luciferase activity” value was 1.27. With “MDSPWDELALAFSRTSMFPFFDIAHYLVSVMAVKRQPGAAALAWKNPISSWFTAMLHCFGGGILSCLLLAEPPLKFLANHTNILLASSIWYITFFCPHDLVSQGYSYLPVQLLASGMKEVTRTWKIVGGVTHANSYYKNGWIVMIAIGWARGAGGTIITNFERLVKGDWKPEGDEWLKMSYPAKVTLLGSVIFTFQHTQHLAISKHNLMFLYTIFIVATKITMMTTQTSTMTFAPFEDTLSWMLFGWQQPFSSCEKKSEAKSPSNGVGSLASKPVDVASDNVKKKHTKKNE [TMEM38B]” the “relative ERE luciferase activity” value was 1.07. “MSYKPIAPAPSSTPGSSTPGPGTPVPTGSVPSPSGSVPGAGAPFRPLFNDFGPPSMGYVQAMKPPGAQGSQSTYTDLLSVIEEMGKEIRPTYAGSKSAMERLKRGIIHARALVRECLAETERNART [CDK2AP2]” was tested, and the “relative ERE luciferase activity” value was 1. For “MSRPLITRSPASPLNNQGIPTPAQLTKSNAPVHIDVGGHMYTSSLATLTKYPESRIGRLFDGTEPIVLDSLKQHYFIDRDGQMFRYILNFLRTSKLLIPDDFKDYTLLYEEAKYFQLQPMLLEMERWKQDRETGRFSRPCECLVVRVAPDLGERITLSGDKSLIEEVFPEIGDVMCNSVNAGWNHDSTHVIRFPLNGYCHLNSVQVLERLQQRGFEIVGSCGGGVDSSQFSEYVLRRELRRTPRVPSVIRIKQEPLD [KCTD1]”, the “relative ERE luciferase activity” value was 1.25.

Reference: the supplement of paper PMC2577665
